Test: peptide made by a vendor
Settings: whole synthesis

## 11-GKSARDVFTKGYGFGL-26- RRMKWKK
  purity (crude or final not stated): 95.24%

From article PMC9599717 (Biomolecules, 2022)
